Experimental data reported in patent US20040229274A1 (Johns Hopkins, published 2004).
Results are given in words; binding and its absence hold for the method and conditions named. For some of these results: In cells and extracts the contact can be indirect. Some entries that bind do so weakly or less than the wild type. For some of these results: Where a sequence is shown, tags or fusion partners need not be part of it.

By UniProt entry, the sequences of proteins in these tests, tags left out. Where a name states a change or a piece, a line headed by the entry shows the natural chain unless it says otherwise. Chains listed by the source or under a name are the forms on record and can include a tag or linker. Residues count along the entry.
UniProt P23385, residues 19-1199: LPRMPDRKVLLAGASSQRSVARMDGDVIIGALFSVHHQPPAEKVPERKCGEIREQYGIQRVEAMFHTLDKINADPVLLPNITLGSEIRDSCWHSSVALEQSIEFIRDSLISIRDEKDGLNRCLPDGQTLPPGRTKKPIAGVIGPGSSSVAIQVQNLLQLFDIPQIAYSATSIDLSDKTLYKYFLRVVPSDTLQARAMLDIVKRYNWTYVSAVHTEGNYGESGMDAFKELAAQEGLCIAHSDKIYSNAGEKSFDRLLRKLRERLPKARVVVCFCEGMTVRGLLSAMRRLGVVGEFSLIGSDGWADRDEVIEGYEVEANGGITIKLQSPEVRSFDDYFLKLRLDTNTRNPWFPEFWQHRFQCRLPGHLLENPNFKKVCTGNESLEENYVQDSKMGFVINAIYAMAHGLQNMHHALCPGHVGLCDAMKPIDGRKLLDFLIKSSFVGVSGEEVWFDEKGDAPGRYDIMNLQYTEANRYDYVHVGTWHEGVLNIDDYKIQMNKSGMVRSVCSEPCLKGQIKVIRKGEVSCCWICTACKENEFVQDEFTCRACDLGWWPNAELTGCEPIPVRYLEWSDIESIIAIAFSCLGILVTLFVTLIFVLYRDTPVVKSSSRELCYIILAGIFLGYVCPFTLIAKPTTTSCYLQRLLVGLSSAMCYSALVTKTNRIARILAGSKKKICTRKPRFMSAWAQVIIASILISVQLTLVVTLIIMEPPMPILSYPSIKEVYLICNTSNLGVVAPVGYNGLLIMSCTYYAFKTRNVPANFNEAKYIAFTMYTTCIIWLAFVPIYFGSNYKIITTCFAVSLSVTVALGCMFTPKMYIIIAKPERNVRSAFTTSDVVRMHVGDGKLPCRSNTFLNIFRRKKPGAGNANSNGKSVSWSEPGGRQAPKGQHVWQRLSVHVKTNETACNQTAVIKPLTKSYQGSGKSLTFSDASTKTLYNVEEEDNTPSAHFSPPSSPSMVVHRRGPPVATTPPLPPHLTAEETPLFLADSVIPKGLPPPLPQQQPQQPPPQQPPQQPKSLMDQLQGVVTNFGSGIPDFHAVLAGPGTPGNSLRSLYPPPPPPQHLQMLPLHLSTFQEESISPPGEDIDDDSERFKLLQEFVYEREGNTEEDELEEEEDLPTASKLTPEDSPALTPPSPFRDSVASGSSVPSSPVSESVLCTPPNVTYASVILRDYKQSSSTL
UniProt P31424: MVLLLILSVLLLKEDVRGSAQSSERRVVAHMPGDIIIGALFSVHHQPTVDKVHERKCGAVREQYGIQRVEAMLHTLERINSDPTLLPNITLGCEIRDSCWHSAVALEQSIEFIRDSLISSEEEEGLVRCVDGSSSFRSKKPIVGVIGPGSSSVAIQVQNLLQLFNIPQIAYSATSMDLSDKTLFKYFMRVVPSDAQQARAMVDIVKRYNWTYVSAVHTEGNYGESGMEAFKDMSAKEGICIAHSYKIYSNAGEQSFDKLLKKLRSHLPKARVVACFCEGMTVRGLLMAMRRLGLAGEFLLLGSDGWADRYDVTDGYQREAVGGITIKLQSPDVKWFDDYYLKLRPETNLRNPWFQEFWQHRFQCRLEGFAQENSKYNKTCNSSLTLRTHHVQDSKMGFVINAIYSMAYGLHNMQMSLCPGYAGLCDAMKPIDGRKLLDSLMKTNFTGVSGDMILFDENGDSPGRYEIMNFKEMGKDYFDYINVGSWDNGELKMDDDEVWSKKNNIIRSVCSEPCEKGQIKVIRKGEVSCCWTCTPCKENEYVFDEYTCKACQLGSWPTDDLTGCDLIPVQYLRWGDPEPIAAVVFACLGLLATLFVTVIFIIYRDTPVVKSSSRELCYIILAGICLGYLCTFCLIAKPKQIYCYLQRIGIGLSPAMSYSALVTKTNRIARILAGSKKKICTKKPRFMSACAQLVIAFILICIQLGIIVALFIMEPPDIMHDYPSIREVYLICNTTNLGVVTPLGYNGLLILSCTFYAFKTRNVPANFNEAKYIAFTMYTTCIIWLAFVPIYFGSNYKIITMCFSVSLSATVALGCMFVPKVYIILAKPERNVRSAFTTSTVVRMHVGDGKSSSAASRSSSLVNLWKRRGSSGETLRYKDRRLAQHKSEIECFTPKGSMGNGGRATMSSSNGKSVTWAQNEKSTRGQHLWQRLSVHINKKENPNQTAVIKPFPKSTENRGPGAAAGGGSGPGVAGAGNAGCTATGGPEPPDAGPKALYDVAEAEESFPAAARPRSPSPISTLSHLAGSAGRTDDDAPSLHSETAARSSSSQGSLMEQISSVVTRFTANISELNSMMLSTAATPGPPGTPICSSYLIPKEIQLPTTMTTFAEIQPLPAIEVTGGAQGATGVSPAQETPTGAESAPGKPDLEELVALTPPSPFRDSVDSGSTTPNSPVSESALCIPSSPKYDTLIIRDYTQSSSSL
native mGluR5 in detergent extracts of rat hippocampus: residues 21-1203 of P31424
myc-tagged mGluR5 C-terminus (195 aa) expressed in HEK-293 cells: residues 1009-1203 of P31424

How the values were obtained:
[1] = molecular target: full length mGluR1a transiently expressed in HEK-293 cells (UniProt P23385); test: in vitro binding to GST-Homer, immunoblot
[2] = molecular target: full length mGluR5 transiently expressed in HEK-293 cells (UniProt P31424); test: in vitro binding to GST-Homer, immunoblot
[3] = molecular target: native mGluR5 in detergent extracts of rat hippocampus (rat) (UniProt P31424); test: GST-Homer Affigel column loaded with hippocampal extract, immunoblot
[4] = molecular target: full length mGluR1a transiently expressed in HEK-293 cells (UniProt P23385); test: bead-linked GST-Homer pull-down from HEK-293 cell extracts, immunoblot
[5] = molecular target: full length mGluR5 transiently expressed in HEK-293 cells (UniProt P31424); test: as above
[6] = molecular target: native mGluR5 in detergent extracts of rat hippocampus (rat) (UniProt P31424); test: GST-Homer affinity column loaded with hippocampal extract, immunoblot for mGluR5
[7] = molecular target: native mGluR5 in detergent extracts of rat hippocampus (rat) (UniProt P31424); test: GST-Homer affinity column loaded with detergent extract of hippocampus, immunoblot
[8] = molecular target: myc-tagged mGluR5 C-terminus (195 aa) expressed in HEK-293 cells (UniProt P31424); test: GST-Homer constructs, pull-down of myc-tagged mGluR5 C-terminus from HEK-293 extracts, immunoblot for myc
[9] = molecular target: native mGluR5 in detergent extracts of rat hippocampus (rat) (UniProt P31424); test: co-immunoprecipitation from hippocampal lysate with anti-Homer serum, immunoblot for mGluR5
[10] = molecular target: native mGluR5 in detergent extracts of rat hippocampus (rat) (UniProt P31424); test: co-immunoprecipitation from hippocampal lysate with anti-Homer antiserum, immunoblot for mGluR5

binding [1] | binding [2] | binding [3] | binding [4] | binding [5] | binding [6] | binding [7] | binding [8] | binding [9] | binding [10] | Binder
binds | binds | binds | binds | binds | binds | binds | binds | – | – | GST-Homer fusion protein (full length rat Homer, 1-186, fused to glutathione-S-transferase) (other, Bacterially expressed from pGEX; GST is put first as usual for pGEX; also called Homer GST fusion protein; Homer-GST fusion protein; not shown: glutathione-S-transferase (GST) encoded by the bacterial vector pGEX (Pharmacia)) MGEQPIFSTRAHVFQIDPNTKKNWVPTSKHAVTVSYFYDSTRNVYRIISLDGSKAIINSTITPNMTFTKTSQKFGQWADSRANTVYGLGFSSEHHLSKFAEKFQEFKEAARLAKEKSQEKMELTSTPSQESAGGDLQSPLTPESINGTDDERTPDVTQNSEPRAEPAQNALPFSHRYTFNSAIMIK
– | – | – | – | – | – | – | – | binds | binds | native Homer protein in rat hippocampus (protein) MGEQPIFSTRAHVFQIDPNTKKNWVPTSKHAVTVSYFYDSTRNVYRIISLDGSKAIINSTITPNMTFTKTSQKFGQWADSRANTVYGLGFSSEHHLSKFAEKFQEFKEAARLAKEKSQEKMELTSTPSQESAGGDLQSPLTPESINGTDDERTPDVTQNSEPRAEPAQNALPFSHRYTFNSAIMIK
